Test results from PMC6491720.
Results are given in words; binding and its absence hold for the method and conditions named. For part of these data: Binding seen in cells or lysates may run through a third protein. Some binding calls cover weakened binding; strength is not graded here. Sequences can lack the tags named with a protein.

The chains behind the UniProt entries cited, without tags or fusion partners.
UniProt O75340: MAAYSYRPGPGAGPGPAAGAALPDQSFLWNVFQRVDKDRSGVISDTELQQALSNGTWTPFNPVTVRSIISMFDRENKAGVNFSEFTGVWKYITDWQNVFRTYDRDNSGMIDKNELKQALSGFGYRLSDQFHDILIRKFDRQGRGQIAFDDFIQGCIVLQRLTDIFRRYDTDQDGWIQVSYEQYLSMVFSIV

Tests used:
[1] = target: T1, ANXA7-turboGFP (annexin A7 with C-terminal turbo-GFP tag) (human) (UniProt P20073); assay: co-IP; lysates of MCF7-p95ErbB2 cells overexpressing ANXA7-mRFP or ANXA7-tGFP, exposed to scrape injury; IP with tGFP antibody on protein A agarose or RFP-Trap agarose, overnight at 4 °C; lysis buffer 50 mM Tris-HCl pH 7.4, 150 mM NaCl, 0.5% NP40, 1 mM EDTA; blot with ANXA7 and ALG-2 antibodies
T1 sequence: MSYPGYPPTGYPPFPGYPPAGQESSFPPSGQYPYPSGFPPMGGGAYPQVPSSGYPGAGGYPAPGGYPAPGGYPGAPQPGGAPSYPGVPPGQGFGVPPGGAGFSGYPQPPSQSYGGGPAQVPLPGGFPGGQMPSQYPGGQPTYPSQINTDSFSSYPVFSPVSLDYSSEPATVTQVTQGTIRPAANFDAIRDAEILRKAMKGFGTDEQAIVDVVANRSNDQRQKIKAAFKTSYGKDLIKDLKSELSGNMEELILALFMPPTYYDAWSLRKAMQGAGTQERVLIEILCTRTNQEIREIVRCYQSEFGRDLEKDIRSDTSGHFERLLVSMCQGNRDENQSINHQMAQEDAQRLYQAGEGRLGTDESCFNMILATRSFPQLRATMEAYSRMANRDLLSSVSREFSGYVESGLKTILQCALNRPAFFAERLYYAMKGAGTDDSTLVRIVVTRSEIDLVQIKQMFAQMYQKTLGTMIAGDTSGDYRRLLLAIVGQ

[2] = target: T2, ANXA7-monomericRFP (annexin A7 with C-terminal monomeric RFP tag) (human) (UniProt P20073); assay: as above
T2 sequence: T1 sequence

[3] = target: T3, recombinant ANXA7 (without GFP) (human) (UniProt P20073); assay: recruitment to supported lipid membrane patches (time-lapse fluorescence microscopy); POPC/POPS 9:1 membrane patches with free edges on mica; 50 mM TRIS, 100 mM NaCl, 2 mM CaCl2, pH 7.4, 22 °C; 100 pmole of ANXA7 and ALG-2 added; ALG-2-GFP imaged; both purified
T3 sequence: T1 sequence

binding [3]	Substance	binding [1]	binding [2]
–	apoptosis-linked gene-2 (ALG-2), endogenous (from UniProt O75340 1-191)	binds	binds
binds	recombinant ALG-2-GFP (from UniProt O75340 1-191)	–	–
